# The other results are listed elsewhere or left out.
# Assays:
# Experiment in all cases: glycan array binding signal (z-score within array); higher = stronger binding
# Conditions in all cases: glycan notation: IUPAC condensed, linker removed
# Fuc(a1-3)GlcNAc = biological target: Fuc(a1-3)GlcNAc
# How it was run: (§1)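 Glycan array binding is given as a within-array Z-score, which can be read as non-binding when negative. The arrays, 3228 of them, came from the Consortium for Functional Glycomics database and were retained only where the protein sequence was available. Z-scores were averaged across arrays of the same protein sequence at different concentrations or buffers and across linkers.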
# [1] = biological target: Fuc(a1-3)[Gal(b1-4)]Glc6S
# How it was run: as §1
# [2] = biological target: Fuc(a1-3)[Gal(b1-4)]GlcNAc
# How it was run: as §1
# [3] = biological target: Fuc(a1-3)[Gal(b1-4)]GlcNAc(b1-2)Man
# How it was run: as §1
# [4] = biological target: Fuc(a1-3)[Gal(b1-4)]GlcNAc(b1-2)Man(a1-3)[Fuc(a1-3)[Gal(b1-4)]GlcNAc(b1-2)Man(a1-6)]Man(b1-4)GlcNAc(b1-4)GlcNAc
# How it was run: as §1
# [5] = biological target: Fuc(a1-3)[Gal(b1-4)]GlcNAc(b1-2)Man(a1-3)[Fuc(a1-3)[Gal(b1-4)]GlcNAc(b1-2)Man(a1-6)]Man(b1-4)GlcNAc(b1-4)[Fuc(a1-6)]GlcNAc
# How it was run: as §1
# [6] = biological target: Fuc(a1-3)[Gal(b1-4)]GlcNAc(b1-3)Gal(b1-3)[Fuc(a1-4)]GlcNAc
# How it was run: as §1
# [7] = biological target: Fuc(a1-3)[Gal(b1-4)]GlcNAc(b1-3)Gal(b1-4)[Fuc(a1-3)]GlcNAc
# How it was run: as §1
# [8] = biological target: Fuc(a1-3)[Gal(b1-4)]GlcNAc(b1-3)Gal(b1-4)[Fuc(a1-3)]GlcNAc(b1-3)Gal(b1-4)[Fuc(a1-3)]GlcNAc
# How it was run: as §1
# [9] = biological target: Fuc(a1-3)[Gal(b1-4)]GlcNAc(b1-3)GalNAc
# How it was run: as §1
# [10] = biological target: Fuc(a1-3)[Gal(b1-4)]GlcNAc(b1-6)GalNAc
# How it was run: as §1
# [11] = biological target: Fuc(a1-3)[Gal(b1-4)]GlcNAc(b1-6)[Gal(b1-3)GlcNAc(b1-3)]Gal(b1-4)Glc
# How it was run: as §1
# [12] = biological target: Fuc(a1-3)[Gal(b1-4)]GlcNAc6S
# How it was run: as §1
# [13] = biological target: Fuc(a1-3)[Gal3S(b1-4)]Glc
# How it was run: as §1
# [14] = biological target: Fuc(a1-3)[Gal3S(b1-4)]GlcNAc
# How it was run: as §1
# [15] = biological target: Fuc(a1-3)[Gal3S(b1-4)]GlcNAc6S
# How it was run: as §1
# [16] = biological target: Fuc(a1-3)[GalNAc(b1-4)]GlcNAc
# How it was run: as §1
# [17] = biological target: Fuc(a1-3)[GalNAc(b1-4)]GlcNAc6S
# How it was run: as §1
# Fuc(a1-4)GlcNAc = biological target: Fuc(a1-4)GlcNAc
# How it was run: as §1
# Fuc(b1-3)GlcNAc = biological target: Fuc(b1-3)GlcNAc
# How it was run: as §1
# Gal(a1-2)Gal = biological target: Gal(a1-2)Gal
# How it was run: as §1
# Gal(a1-3)Gal = biological target: Gal(a1-3)Gal
# How it was run: as §1
# Gal(a1-3)Gal(b1-3)GlcNAc = biological target: Gal(a1-3)Gal(b1-3)GlcNAc
# How it was run: as §1
# [18] = biological target: Gal(a1-3)Gal(b1-3)GlcNAc(b1-2)Man
# How it was run: as §1
# [19] = biological target: Gal(a1-3)Gal(b1-3)GlcNAc(b1-2)Man(a1-3)[Gal(a1-3)Gal(b1-3)GlcNAc(b1-2)Man(a1-6)]Man(b1-4)GlcNAc(b1-4)GlcNAc
# How it was run: as §1
# [20] = biological target: Gal(a1-3)Gal(b1-3)GlcNAc(b1-3)GalNAc
# How it was run: as §1
# [21] = biological target: Gal(a1-3)Gal(b1-3)GlcNAc(b1-6)GalNAc
# How it was run: as §1
# [22] = biological target: Gal(a1-3)Gal(b1-3)[Fuc(a1-4)]GlcNAc(b1-2)Man(a1-3)[Gal(a1-3)Gal(b1-3)[Fuc(a1-4)]GlcNAc(b1-2)Man(a1-6)]Man(b1-4)GlcNAc(b1-4)GlcNAc
# How it was run: as §1
# Gal(a1-3)Gal(b1-4)Glc = biological target: Gal(a1-3)Gal(b1-4)Glc
# How it was run: as §1
# Gal(a1-3)Gal(b1-4)GlcNAc = biological target: Gal(a1-3)Gal(b1-4)GlcNAc
# How it was run: as §1
binder,measurement,setting,value
"Thrombomodulin Extracellular (Mus musculus), P15306 (protein) MLGIFFLGVLAPASLGLSALAKLQPTGSQCVEHECFALFQGPATFLDASQACQRLQGHLMTVRSSVAADVISLLLSQSSMDLGPWIGLQLPQGCDDPVHLGPLRGFQWVTGDNHTSYSRWARPNDQTAPLCGPLCVTVSTATEAAPGEPAWEEKPCETETQGFLCEFYFTASCRPLTVNTRDPEAAHISSTYNTPFGVSGADFQTLPVGSSAAVEPLGLELVCRAPPGTSEGHWAWEATGAWNCSVENGGCEYLCNRSTNEPRCLCPRDMDLQADGRSCARPVVQSCNELCEHFCVSNAEVPGSYSCMCETGYQLAADGHRCEDVDDCKQGPNPCPQLCVNTKGGFECFCYDGYELVDGECVELLDPCFGSNCEFQCQPVSPTDYRCICAPGFAPKPDEPHKCEMFCNETSCPADCDPNSPTVCECPEGFILDEGSVCTDIDECSQGECFTSECRNFPGSYECICGPDTALAGQISKDCDPIPVREDTKEEEGSGEPPVSPTPGSPTGPPSARPVHSGVLIGISIASLSLVVALLALLCHLRKKQGAARAELEYKCASSAKEVVLQHVRTDRTLQKF",glycan array binding signal (z-score),Fuc(a1-3)GlcNAc,-0.402
same,glycan array binding signal (z-score),[1],0.899
same,glycan array binding signal (z-score),[2],-0.624
same,glycan array binding signal (z-score),[3],-2.17
same,glycan array binding signal (z-score),[4],-0.361
same,glycan array binding signal (z-score),[5],0.185
same,glycan array binding signal (z-score),[6],-0.513
same,glycan array binding signal (z-score),[7],-0.843
same,glycan array binding signal (z-score),[8],-1.64
same,glycan array binding signal (z-score),[9],-0.136
same,glycan array binding signal (z-score),[10],0.626
same,glycan array binding signal (z-score),[11],-0.049
same,glycan array binding signal (z-score),[12],-1.05
same,glycan array binding signal (z-score),[13],-0.681
same,glycan array binding signal (z-score),[14],0.004
same,glycan array binding signal (z-score),[15],-0.475
same,glycan array binding signal (z-score),[16],-0.476
same,glycan array binding signal (z-score),[17],0.573
same,glycan array binding signal (z-score),Fuc(a1-4)GlcNAc,-0.498
same,glycan array binding signal (z-score),Fuc(b1-3)GlcNAc,0.002
same,glycan array binding signal (z-score),Gal(a1-2)Gal,-1.35
same,glycan array binding signal (z-score),Gal(a1-3)Gal,-0.771
same,glycan array binding signal (z-score),Gal(a1-3)Gal(b1-3)GlcNAc,-0.434
same,glycan array binding signal (z-score),[18],0.525
same,glycan array binding signal (z-score),[19],0.235
same,glycan array binding signal (z-score),[20],1.3
same,glycan array binding signal (z-score),[21],0.877
same,glycan array binding signal (z-score),[22],1.48
same,glycan array binding signal (z-score),Gal(a1-3)Gal(b1-4)Glc,-0.459
same,glycan array binding signal (z-score),Gal(a1-3)Gal(b1-4)GlcNAc,-0.81

# Reformatted tab-delimited: entries from further up.
binder	measurement	setting	value
Thrombomodulin Extracellular (Mus musculus), P15306 (protein) MLGIFFLGVLAPASLGLSALAKLQPTGSQCVEHECFALFQGPATFLDASQACQRLQGHLMTVRSSVAADVISLLLSQSSMDLGPWIGLQLPQGCDDPVHLGPLRGFQWVTGDNHTSYSRWARPNDQTAPLCGPLCVTVSTATEAAPGEPAWEEKPCETETQGFLCEFYFTASCRPLTVNTRDPEAAHISSTYNTPFGVSGADFQTLPVGSSAAVEPLGLELVCRAPPGTSEGHWAWEATGAWNCSVENGGCEYLCNRSTNEPRCLCPRDMDLQADGRSCARPVVQSCNELCEHFCVSNAEVPGSYSCMCETGYQLAADGHRCEDVDDCKQGPNPCPQLCVNTKGGFECFCYDGYELVDGECVELLDPCFGSNCEFQCQPVSPTDYRCICAPGFAPKPDEPHKCEMFCNETSCPADCDPNSPTVCECPEGFILDEGSVCTDIDECSQGECFTSECRNFPGSYECICGPDTALAGQISKDCDPIPVREDTKEEEGSGEPPVSPTPGSPTGPPSARPVHSGVLIGISIASLSLVVALLALLCHLRKKQGAARAELEYKCASSAKEVVLQHVRTDRTLQKF	glycan array binding signal (z-score)	[19]	0.235
same	glycan array binding signal (z-score)	[20]	1.3
